{"sequences": {"note": "Protein sequences, listed by entry. Tags and fused reporters are not part of them. Residues count along the entry.", "UniProt Q86925, residues 110-267": "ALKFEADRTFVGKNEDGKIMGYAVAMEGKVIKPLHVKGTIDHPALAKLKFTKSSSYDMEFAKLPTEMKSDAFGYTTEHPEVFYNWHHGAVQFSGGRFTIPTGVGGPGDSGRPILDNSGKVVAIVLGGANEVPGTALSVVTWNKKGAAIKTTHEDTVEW"}, "source": "paper PMC3522669", "target": "Aura virus capsid protease (C-terminal protease domain of the capsid protein, residues 110-267) (Aura virus) (UniProt Q86925)", "assay": "crystal structure; AVCP apo and dioxane-soaked crystals, space group C2, one molecule per asymmetric unit; crystals grown in 28% w/v PEG monomethyl ether 2000, 100 mM Bis-Tris pH 6.5, 20°C; both purified", "note": "No constants are given. Whether binding was seen depends on the method and setting."}
{"substance": "Aura virus capsid protease (C-terminal protease domain of the capsid protein, residues 110-267) (from UniProt Q86925 110-267) (domain or fragment)", "values": [{"measurement": "binding", "result": "no binding"}]}
